Reference: US12678423B2, “Therapeutic agent for amyotrophic lateral sclerosis and composition for treatment” (KEIO UNIVERSITY, priority 2016, dated 2026)

Key:
Assay type in all cases: cell-based, human
Details in all cases: final concentration 10 μM, added days 35 to 40
[1] = system: motor neurons induced to differentiate from iPS cells derived from ALS patients (TDP-43-ALS) having a mutation in TDP-43; experiment: Neurite length, TDP-43-ALS motor neurons (screening, Example I-8)
Procedure: (§1) For each differentiation-induced motor neuron in Example I-1, the changes over time in the neurite length were measured. A Bio station CT (Nikon Corp.) was used to measure the neurite length over time. FIG. 1 is a graph showing measurement results of changes over time in the neurite length. The vertical axis represents neurite length (relative value), and the horizontal axis represents the number of days of culturing from the start of differentiation induction.
(§2) Using the differentiation-induced motor neurons in Example I-1, drugs which cause the ALS phenotype to be restored were screened from existing drug libraries with the neurite length, ectopic localization of FUS protein, stress granule formation, LDH leakage ratio, CV-caspase 3-positive ratio, phosphorylated TDP-43 protein inclusion formation, and the like as indices.
(§3) As a result of the screening, ropinirole was found as a promising therapeutic agent for ALS. Tables 5 and 6 show the improvement ratio (%) in the ALS phenotype due to adding ropinirole to the medium. Here, ropinirole was added to the medium on days 35 to 40 from the start of the differentiation induction of each iPS cell. […]
(§4) The improvement ratio (%) of the ALS phenotype was calculated by Equation (1). […]
(§5) Subsequently, in the same manner as above, the efficacy in cases of administering lower concentrations of ropinirole was evaluated. […]

[2] = system: motor neurons induced to differentiate from iPS cells derived from ALS patients (FUS-ALS) having a mutation in FUS; experiment: Stress granule formation (G3BP immunostaining), FUS-ALS motor neurons
Procedure: On day 40 from the start of differentiation induction, the formation of stress granules was examined using each differentiation-induced motor neuron in Example I-1. The detection of stress granules was performed by immunostaining with G3BP, which is a marker of stress granules.
as §2
(§6) As a result of the screening, ropinirole was found as a promising therapeutic agent for ALS. Tables 5 and 6 show the improvement ratio (%) in the ALS phenotype due to adding ropinirole to the medium. Here, ropinirole was added to the medium on days 35 to 40 from the start of the differentiation induction of each iPS cell. Here, it is assumed that days 35 to 40 from the start of differentiation induction correspond to the early stage of the ALS disease.
(§7) The improvement ratio (%) of the ALS phenotype was calculated by Equation (1).
(§8) [formula] […]
as §5

[3] = system: motor neurons induced to differentiate from iPS cells derived from ALS patients (FUS-ALS) having a mutation in FUS; experiment: Ectopic localization of FUS protein in the cytoplasm, FUS-ALS motor neurons
Text: Therefore, on day 40 from the start of differentiation induction, each differentiation-induced motor neuron in Example I-1 was immunostained and the localization of FUS protein in the cytoplasm was examined.
as §2, §6, §7, §8, §5

[4] = system: motor neurons induced to differentiate from iPS cells derived from ALS patients (TDP-43-ALS) having a mutation in TDP-43; experiment: Phosphorylated TDP-43 protein inclusion formation, TDP-43-ALS motor neurons
Text: Therefore, on day 40 from the start of differentiation induction, each differentiation-induced motor neuron in Example I-1 was immunostained and the formation of phosphorylated TDP-43 protein inclusions was examined.
as §2, §6, §7, §8, §5

[5] = system: motor neurons induced to differentiate from iPS cells derived from ALS patients (FUS-ALS) having a mutation in FUS; experiment: Neurite length, FUS-ALS motor neurons (screening, Example I-8)
Procedure: as §1, §2, §3, §4, §5

[6] = system: motor neurons induced to differentiate from iPS cells derived from ALS patients (FUS-ALS) having a mutation in FUS; experiment: LDH leakage ratio, FUS-ALS motor neurons
Procedure: (§9) The leakage amount of LDH into the medium is an indicator of cytotoxicity. For measurement of the LDH leakage ratio, a commercially available kit (model “LDH Cytotoxicity Detection Kit”, Takara Bio Inc.) was used.
(§10) Here, ropinirole was added to the medium on days 35 to 40 from the start of the differentiation induction of each iPS cell. Here, it is assumed that days 35 to 40 from the start of differentiation induction correspond to the early stage of the ALS disease.
as §7
(§11) [formula] [In Equation (1), A represents a measurement value of motor neurons induced to differentiate from iPS cells derived from ALS patients in the absence of ropinirole, and B represents a measurement value of motor neurons induced to differentiate from iPS cells derived from ALS patients in the presence of ropinirole, and C represents a measurement value of motor neurons induced to differentiate from iPS cells derived from healthy subjects in the absence of ropinirole.]
(§12) Subsequently, in the same manner as above, the efficacy in cases of administering lower concentrations of ropinirole was evaluated.
(§13) Each drug was added to the medium at a final concentration of 10 μM.

[7] = system: motor neurons induced to differentiate from iPS cells derived from ALS patients (TDP-43-ALS) having a mutation in TDP-43; experiment: LDH leakage ratio, TDP-43-ALS motor neurons
Procedure: as §9, §10, §7, §11, §12, §13

Compound: Nc1nc2ccc(OC(F)(F)F)cc2s1 [Riluzole]
- Neurite length improvement ratio [1]: 0.277%
- Stress granule formation improvement ratio [2]: 9.38%
- Ectopic localization of FUS protein improvement ratio [3]: 6.83%
- TDP-43 inclusion formation improvement ratio [4]: 10.3%
- Neurite length improvement ratio [5]: 8.89%
- LDH leakage ratio improvement ratio [6]: 5.83%
- LDH leakage ratio improvement ratio [7]: −11.7%
